1 molecule from article PMC5582526 can be followed below.

By UniProt entry, the sequences of proteins in these tests, tags left out.
UniProt Q15554: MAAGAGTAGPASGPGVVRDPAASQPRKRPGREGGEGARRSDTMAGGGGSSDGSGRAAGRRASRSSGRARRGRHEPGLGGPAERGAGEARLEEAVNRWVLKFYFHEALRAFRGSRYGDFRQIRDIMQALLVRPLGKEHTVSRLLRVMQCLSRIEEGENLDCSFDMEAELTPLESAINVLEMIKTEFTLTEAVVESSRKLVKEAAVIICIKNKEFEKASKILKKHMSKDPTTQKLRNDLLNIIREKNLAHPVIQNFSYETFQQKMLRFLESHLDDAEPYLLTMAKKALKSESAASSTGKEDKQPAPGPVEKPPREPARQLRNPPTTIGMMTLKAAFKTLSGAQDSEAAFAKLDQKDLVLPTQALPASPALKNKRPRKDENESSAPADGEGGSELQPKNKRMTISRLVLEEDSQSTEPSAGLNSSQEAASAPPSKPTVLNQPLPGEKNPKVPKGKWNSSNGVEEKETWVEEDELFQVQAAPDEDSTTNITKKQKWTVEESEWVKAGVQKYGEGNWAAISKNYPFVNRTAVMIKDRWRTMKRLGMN

Results are given in words; binding and its absence hold for the method and conditions named. Binding seen in cells or lysates may run through a third protein. Some entries that bind do so weakly or less than the wild type.

The target of this test is Telomeric repeat-binding factor 2 (TRF2), endogenous (human (endogenous in 293T)) (UniProt Q15554). As to the kind of experiment: co-IP; endogenous proteins of a 293T cell lysate; IP with anti-NOLC1 or anti-TRF2 antibody; blots with anti-NOLC1 and anti-TRF2; 50 mM Tris-HCl pH 7.4, 150 mM NaCl, 1 mM EDTA, 1 mM DTT, 0.3% NP40; 4 °C.

B1: Nucleolar and coiled-body phosphoprotein 1 (NOLC1), endogenous (protein, UniProt Q14978 1-699)
chain: MADAGIRRVVPSDLYPLVLGFLRDNQLSEVANKFAKATGATQQDANASSLLDIYSFWLKSAKVPERKLQANGPVAKKAKKKASSSDSEDSSEEEEEVQGPPAKKAAVPAKRVGLPPGKAAAKASESSSSEESSDDDDEEDQKKQPVQKGVKPQAKAAKAPPKKAKSSDSDSDSSSEDEPPKNQKPKITPVTVKAQTKAPPKPARAAPKIANGKAASSSSSSSSSSSSDDSEEEKAAATPKKTVPKKQVVAKAPVKAATTPTRKSSSSEDSSSDEEEEQKKPMKNKPGPYSSVPPPSAPPPKKSLGTQPPKKAVEKQQPVESSEDSSDESDSSSEEEKKPPTKAVVSKATTKPPPAKKAAESSSDSSDSDSSEDDEAPSKPAGTTKNSSNKPAVTTKSPAVKPAAAPKQPVGGGQKLLTRKADSSSSEEESSSSEEEKTKKMVATTKPKATAKAALSLPAKQAPQGSRDSSSDSDSSSSEEEEEKTSKSAVKKKPQKVAGGAAPSKPASAKKGKAESSNSSSSDDSSEEEEEKLKGKGSPRPQAPKANGTSALTAQNGKAAKNSEEEEEEKKKAAVVVSKSGSLKKRKQNEAAKEAETPQAKKIKLQTPNTFPKRKKGEKRASSPFRRVREEEIEVDSRVADNSFDAKRGAAGDWGERANQVLKFTKGKSFRHEKTKKKRGSYRGGSISVQVNSIKFDSE
Regarding B1, the binding result was “binds”.
